Measurements reported in PubChem BioAssay AID602203 (INSERM, 2012).

Assay: 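Confirming genes that raise or lower cisplatin-induced death in A549 cells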 (follow-up of hits)
Cells: human A549 lung cancer cells
Reagent: siRNA pair against human genes
Challenge: cisplatin at a dose killing half of control-siRNA cells, given 48 h after transfection
Measurement: 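Two siRNAs per gene scored +1 protective, -1 sensitizing, 0 if toxic by LDH or growth-reducing by WST-1; cisplatin given 48 h later at 50% control kill; scores summed, mean death shift versus control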
Direction: summed siRNA score for cisplatin death: higher = more siRNAs reduced cisplatin-induced cell death; change in cisplatin death versus control: higher = fewer cells died than in control
Units: change in cisplatin death versus control in percentage points
Call rule: In these data the active calls have summed siRNA score for cisplatin death at about -3 or lower, or at about 3 or higher
The deposit covers 999 reagents; shown is a part drawn at random. In the full data, 85 (8.5%) were called active. 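Unclear how single-siRNA scores of -1, 0 or +1 give the printed -4 to 4 range; calls lie near -3 or 3 and beyond.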 Not stated in the record: the amount of reagent, the time to read-out, the dose of the treatment.

The first 2 entries as a preview:
{"gene symbol":"AIF1","summed siRNA score for cisplatin death":-2,"outcome":"inactive"}
{"gene symbol":"PHF1","summed siRNA score for cisplatin death":-1,"outcome":"inactive"}

Results, from the first entry:
{"gene symbol":"AIF1","summed siRNA score for cisplatin death":-2,"outcome":"inactive"}
{"gene symbol":"PHF1","summed siRNA score for cisplatin death":-1,"outcome":"inactive"}
{"gene symbol":"LOC440222","summed siRNA score for cisplatin death":1,"outcome":"inactive"}
{"gene symbol":"H3C7","summed siRNA score for cisplatin death":1,"outcome":"inactive"}
{"gene symbol":"RAMP1","summed siRNA score for cisplatin death":0,"outcome":"inactive"}
{"gene symbol":"DLGAP5","summed siRNA score for cisplatin death":-1,"outcome":"inactive"}
{"gene symbol":"LOC440855","summed siRNA score for cisplatin death":1,"outcome":"inactive"}
{"gene symbol":"COL4A3","summed siRNA score for cisplatin death":-1,"outcome":"inactive"}
{"gene symbol":"RBBP8","summed siRNA score for cisplatin death":0,"outcome":"inactive"}
{"gene symbol":"LOC390231","summed siRNA score for cisplatin death":-1,"outcome":"inactive"}
{"gene symbol":"SLCO2A1","summed siRNA score for cisplatin death":1,"outcome":"inactive"}
{"gene symbol":"LOC441665","summed siRNA score for cisplatin death":1,"outcome":"inactive"}
{"gene symbol":"MSRB2","summed siRNA score for cisplatin death":-1,"outcome":"inactive"}
{"gene symbol":"SYT10","summed siRNA score for cisplatin death":0,"outcome":"inactive"}
{"gene symbol":"PTK2","summed siRNA score for cisplatin death":1,"outcome":"inactive"}
{"gene symbol":"TPX2","summed siRNA score for cisplatin death":0,"outcome":"inactive"}
{"gene symbol":"ANXA13","summed siRNA score for cisplatin death":0,"outcome":"inactive"}
{"gene symbol":"SEMG2","summed siRNA score for cisplatin death":-3,"change in cisplatin death versus control":-10.6,"outcome":"active"}
{"gene symbol":"LOC442123","summed siRNA score for cisplatin death":1,"outcome":"inactive"}
{"gene symbol":"ALDH4A1","summed siRNA score for cisplatin death":-2,"outcome":"inactive"}
{"gene symbol":"COQ6","summed siRNA score for cisplatin death":0,"outcome":"inactive"}
{"gene symbol":"LOC196266","summed siRNA score for cisplatin death":2,"outcome":"inactive"}
{"gene symbol":"ITK","summed siRNA score for cisplatin death":1,"outcome":"inactive"}
{"gene symbol":"ATP6V1C1","summed siRNA score for cisplatin death":2,"outcome":"inactive"}
{"gene symbol":"SPI1","summed siRNA score for cisplatin death":-1,"outcome":"inactive"}
{"gene symbol":"CGGBP1","summed siRNA score for cisplatin death":0,"outcome":"inactive"}
{"gene symbol":"XYLB","summed siRNA score for cisplatin death":-1,"outcome":"inactive"}
{"gene symbol":"LOC402382","summed siRNA score for cisplatin death":1,"outcome":"inactive"}
{"gene symbol":"LOC442175","summed siRNA score for cisplatin death":0,"outcome":"inactive"}
{"gene symbol":"CD93","summed siRNA score for cisplatin death":-2,"outcome":"inactive"}
{"gene symbol":"SOX1","summed siRNA score for cisplatin death":0,"outcome":"inactive"}
{"gene symbol":"DPF1","summed siRNA score for cisplatin death":1,"outcome":"inactive"}
